Measured values reported in US20240009318A1.
No constants are given. Whether binding was seen depends on the method and setting. Some results given as binding are weak or reduced against the parent protein; the word gives no strength.

Experiments:
[1] = target: human EGFR protein (human) (UniProt P00533); assay: ELISA
[2] = target: human EGFR protein (human) (UniProt P00533); assay: ELISA of binding to EGFR, 5-fold dilutions from 10 ug/mL, detection with HRP goat anti-human IgG Fc, OD 450/650 nm

Row | binding [1] | binding [2] | Binder
1 | binds | binds | BB0500-2gf (antibody, V domains shown) VH: QVQLQESGPGLVKPSETLSLTCTVSGGSVSSGDYYWTWIRQSPGKGLEWIGHIYYSGNTNYNPSLKSRLTISIDTSKTQFSLKLSSVTAADTAIYYCVRDRVAGAFDIWGQGTMVTVSS VL: DIQMTQSPSSLSASVGDRVTITCQASQDISNYLNWYQQKPGKAPKLLIYAASNLETGVPSRFSGSGSGTDFTFTISSLQPEDIATYFCQHFDHLPLAFGGGTKVEIKR
2 | binds | binds | BB0500-2g (antibody, V domains shown) VH: QVQLQESGPGLVKPSETLSLTCTVSGGSVSSGDYYWTWIRQSPGKGLEWIGHIYYSGNTNYNPSLKSRLTISIDTSKTQFSLKLSSVTAADTAIYYCVRDRVAGAFDIWGQGTMVTVSS VL: DIQMTQSPSSLSASVGDRVTITCQASQDISNALNWYQQKPGKAPKLLIYDASNLETGVPSRFSGSGSGTDFTFTISSLQPEDIATYFCQHFDHLPLAFGGGTKVEIKR
